# Experimental data as given in PubChem BioAssay (Tox21).
# Protein sequences, listed by entry. Tags and fused reporters are not part of them. Lines headed by an entry give the natural chain unless they say otherwise; changes in a name come on top.
# UniProt P11473: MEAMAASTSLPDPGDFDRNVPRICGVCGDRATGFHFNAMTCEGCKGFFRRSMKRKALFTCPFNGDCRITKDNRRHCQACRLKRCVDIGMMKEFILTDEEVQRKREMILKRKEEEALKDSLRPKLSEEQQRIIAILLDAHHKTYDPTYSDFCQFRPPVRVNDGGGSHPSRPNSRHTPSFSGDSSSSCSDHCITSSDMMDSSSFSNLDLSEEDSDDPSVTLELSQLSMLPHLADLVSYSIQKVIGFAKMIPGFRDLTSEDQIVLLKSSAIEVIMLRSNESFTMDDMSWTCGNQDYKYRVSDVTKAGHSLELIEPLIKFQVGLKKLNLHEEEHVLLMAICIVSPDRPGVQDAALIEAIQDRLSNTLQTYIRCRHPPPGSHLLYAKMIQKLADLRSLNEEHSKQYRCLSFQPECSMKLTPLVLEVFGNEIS
# UniProt P19793: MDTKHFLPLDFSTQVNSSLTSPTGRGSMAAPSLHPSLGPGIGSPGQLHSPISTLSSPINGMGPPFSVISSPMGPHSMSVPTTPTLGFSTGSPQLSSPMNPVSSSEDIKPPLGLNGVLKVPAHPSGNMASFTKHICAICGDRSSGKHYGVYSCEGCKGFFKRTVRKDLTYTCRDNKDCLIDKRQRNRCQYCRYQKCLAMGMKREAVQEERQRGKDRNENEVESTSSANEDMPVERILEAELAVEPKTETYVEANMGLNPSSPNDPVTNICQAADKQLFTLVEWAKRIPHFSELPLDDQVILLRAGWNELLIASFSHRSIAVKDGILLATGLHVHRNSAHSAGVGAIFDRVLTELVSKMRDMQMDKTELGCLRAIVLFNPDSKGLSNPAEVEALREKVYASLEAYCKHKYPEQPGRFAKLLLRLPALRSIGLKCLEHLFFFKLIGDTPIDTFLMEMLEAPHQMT
# UniProt Q03181: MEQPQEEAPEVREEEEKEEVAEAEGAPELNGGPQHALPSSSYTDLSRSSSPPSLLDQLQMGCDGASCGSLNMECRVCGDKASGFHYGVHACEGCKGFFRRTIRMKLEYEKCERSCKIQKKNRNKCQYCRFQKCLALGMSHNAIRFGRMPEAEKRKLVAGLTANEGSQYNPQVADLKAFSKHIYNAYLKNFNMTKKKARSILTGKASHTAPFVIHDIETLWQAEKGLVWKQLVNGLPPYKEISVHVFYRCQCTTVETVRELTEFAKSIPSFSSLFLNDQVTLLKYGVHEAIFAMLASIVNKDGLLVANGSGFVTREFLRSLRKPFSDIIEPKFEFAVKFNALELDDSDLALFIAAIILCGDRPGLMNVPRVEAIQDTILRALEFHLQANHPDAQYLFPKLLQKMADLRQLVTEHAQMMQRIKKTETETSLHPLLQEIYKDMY
# UniProt Q96RI1: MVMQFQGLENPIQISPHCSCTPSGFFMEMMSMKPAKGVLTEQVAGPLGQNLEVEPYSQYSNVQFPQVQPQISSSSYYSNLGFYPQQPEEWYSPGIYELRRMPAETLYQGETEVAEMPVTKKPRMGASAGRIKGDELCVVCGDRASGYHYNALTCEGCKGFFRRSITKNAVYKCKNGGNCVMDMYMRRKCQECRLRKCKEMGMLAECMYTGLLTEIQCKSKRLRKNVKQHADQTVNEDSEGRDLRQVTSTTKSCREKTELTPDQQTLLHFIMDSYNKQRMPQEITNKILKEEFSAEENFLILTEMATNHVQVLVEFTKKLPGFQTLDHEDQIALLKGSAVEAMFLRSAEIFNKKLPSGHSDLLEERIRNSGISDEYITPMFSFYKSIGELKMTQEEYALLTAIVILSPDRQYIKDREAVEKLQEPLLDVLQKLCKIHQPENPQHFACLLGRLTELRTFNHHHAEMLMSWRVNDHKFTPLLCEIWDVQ
# Several values for one entry are separate records, joined by “and”; a condition that tells them apart may be missing. Equal values may be shown once. This list was built around the results that the source calls inconclusive (neither active nor inactive); the mix of calls is not that of the screen. For some assays here: Potencies of inconclusive entries are doubtful fits and often do not repeat. A structure can be active in one record and inactive in another. Activity calls are given as the source filed them. Unless noted, the call rests on the fitted dose curve; in most records, active means well fitted curve in the direction sought with a large enough effect in the repeat runs; inconclusive means weak or mixed curves; inactive means no such curve, though single readings can be large; an effect the other way counts as inactive or inconclusive.
# How the values were obtained:
# [1] = target: Vitamin D3 receptor (Homo sapiens) (UniProt P11473); assay: qHTS assay to identify small molecule antagonists of the vitamin D receptor (VDR) signaling pathway (AID 743223; active means well fitted inhibition curve with a large enough effect in the signal ratio in the repeat runs, not every such curve was filed as active; inconclusive means weak or mixed curves, or effect the other way; inactive means no such curve, though single readings can be large or run the other way; the % refers to the signal ratio; further: on the % scale 0 is the no-effect control and ±100 the full control effect); settings: VDR-UAS-bla HEK293T, beta-lactamase FRET ratio, 16 h; activity change, negative = inhibition: at 61 µM (top of the series) unless noted
# Summary of the method: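 Quantitative HTS in VDR-bla reporter cells stimulated with 1alpha,25-dihydroxyvitamin D3, 3 nM final. Compound exposure 16 h, 37C, 5% CO2. Read-out: beta-lactamase FRET substrate fluorescence, 2 h RT.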
# [2] = qHTS assay to identify small molecule antagonists of the retinoid-related orphan receptor gamma (ROR-gamma) signaling pathway - cell viability counter screen (AID 1159520); settings: Tet-on RORgamma CHO cells viability, ATP luminescence, 16 h; series mostly up to 92.4 µM; further: nearly all actives have a fitted effect of over 50% in size; further: potency means the concentration at half of the fitted maximal effect
# Summary of the method: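 Tet-on ROR gamma CHO cells were given compounds for 2 hr, then doxycycline hyclate at 1 uM final, and incubated 16 hr at 37 C. Viability was measured as ATP content by CellTiter-Glo luminescence.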
# [3] = qHTS assay to identify small molecule agonists of the AP-1 signaling pathway (AID 1159526; calls by dose curve; further: potency means the concentration at half of the fitted maximal effect; on activation: on the % scale 0 is the no-effect control and ±100 the full control effect); settings: ME-180 (cervical carcinoma) AP-1-bla reporter, beta-lactamase FRET ratio, 5 h; activation: at 76.8 µM (top of the series) unless noted
# [4] = target: Retinoic acid receptor RXR-alpha (Homo sapiens) (UniProt P19793); assay: qHTS assay to identify small molecule agonists of the RXR signaling pathway (AID 1159527; calls by dose curve; further: nearly all actives have a fitted effect of over 35% in size; further: potency means the concentration at half of the fitted maximal effect); settings: HEK293T RXRa-UAS-bla, beta-lactamase ratio, 16 h; activation: at 76.8 µM (top of the series) unless noted
# Summary of the method: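 Compounds in DMSO were added to RXR-alpha-UAS-bla HEK 293T cells kept in 2% charcoal-stripped serum, and incubated 16 hr at 37 C with 5% CO2. Reporter signal came from a 2 hr B/G FRET substrate step.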
# [5] = target: Peroxisome proliferator-activated receptor delta (Homo sapiens) (UniProt Q03181); assay: qHTS assay to identify small molecule agonists of the peroxisome proliferator-activated receptor delta (PPARd) signaling pathway (AID 743212; calls by dose curve; further: potency means the concentration at half of the fitted maximal effect); settings: HEK293H PPARd-UAS-bla, beta-lactamase FRET ratio, 17 h; activation: at 62.6 µM (top of the series) unless noted
# Summary of the method: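 Quantitative high-throughput agonist screen in a HEK293H beta-lactamase reporter line under UAS control. Compounds in DMSO, at 37 C. Fluorescence read after 2 h with FRET substrate at room temperature.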
# [6] = qHTS assay to identify small molecule antagonists of the peroxisome proliferator-activated receptor delta (PPARd) signaling pathway - cell viability counter screen (AID 743213); settings: PPARd-bla HEK293H viability, CellTiter-Glo luminescence, 17 h; viability change, negative = cytotoxic: at 62 µM (top of the series) unless noted; further: potency means the concentration at half of the fitted maximal effect; nearly all actives have a fitted effect of over 50% in size
# Summary of the method: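 PPARd-bla HEK293H cells (3000/well) got compound plus 300 nM L165041 agonist for 17 h at 37 C. Viability in the same wells came from CellTiter-Glo luminescence after 30 min at room temperature.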
# [7] = target: Peroxisome proliferator-activated receptor delta (Homo sapiens) (UniProt Q03181); assay: qHTS assay to identify small molecule antagonists of the peroxisome proliferator-activated receptor delta (PPARd) signaling pathway (AID 743215; active means well fitted inhibition curve with a large enough effect in the signal ratio in the repeat runs, not every such curve was filed as active; inconclusive means weak or mixed curves, or effect the other way; inactive means no such curve, though single readings can be large or run the other way; the % refers to the signal ratio;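 further: cells stimulated with agonist L165041 at 300 nM final during compound exposure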; further: potency means the concentration at half of the fitted maximal effect); settings: HEK293H PPARd-UAS-bla, beta-lactamase FRET ratio, antagonist, 17 h; ratio activity, negative = inhibition: at 62 µM (top of the series) unless noted
# Summary of the method: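 PPARd-bla HEK293H cells (UAS-bla reporter) preincubated 5 h, then given compound plus 300 nM final L165041 agonist for 17 h at 37 C. Beta-lactamase activity read by LiveBLAzer B/G FRET substrate fluorescence after 2 h at room temperature.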
# [8] = qHTS assay to identify small molecule agonists of the farnesoid-X-receptor (FXR) signaling pathway - cell viability counter screen (AID 743218); settings: FXR-bla HEK293T viability, CellTiter-Glo luminescence, 16 h; viability change, negative = cytotoxic: at 62.6 µM (top of the series) unless noted; further: on the % scale 0 is the no-effect control and ±100 the full control effect; nearly all actives have a fitted effect of over 45% in size
# Summary of the method: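 FXR-UAS-bla HEK 293T cells exposed to compounds for 16 h at 37C. Cytotoxicity read in the same wells by CellTiter-Glo luminescence after 30 min at room temperature, following the beta-lactamase FRET read.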
# [9] = target: Vitamin D3 receptor (Homo sapiens) (UniProt P11473); assay: qHTS assay to identify small molecule agonists of the vitamin D receptor (VDR) signaling pathway (AID 743222; calls by dose curve; further: potency means the concentration at half of the fitted maximal effect); settings: HEK293T VDR-UAS-bla, beta-lactamase FRET ratio, 16 h; activation: at 63.5 µM (top of the series) unless noted
# Summary of the method: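 VDR-bla cells plated 4 h at 37 C, then exposed to compounds for 16 h at 37 C. Beta-lactamase reporter activity measured by fluorescence after 2 h room-temperature loading with LiveBLAzer B/G FRET substrate.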
# [10] = qHTS assay to identify small molecule agonists of the vitamin D receptor (VDR) signaling pathway - cell viability counter screen (AID 743224); settings: VDR-bla HEK293T viability, CellTiter-Glo luminescence, 16 h; activity change, negative = cytotoxicity: at 62.6 µM (top of the series); further: potency means the concentration at half of the fitted maximal effect; nearly all actives have a fitted effect of over 50% in size
# Summary of the method: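 VDR-bla cells, 4 h after plating, exposed to compounds for 16 h at 37C; viability then read in the same wells as CellTiter-Glo luminescence after 30 min at room temperature, following the bla FRET read.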
# [11] = qHTS assay to identify small molecule antagonists of the vitamin D receptor (VDR) signaling pathway - cell viability counter screen (AID 743225); settings: VDR-bla HEK293T viability, CellTiter-Glo luminescence, 16 h; viability change, negative = cytotoxic: at 61 µM (top of the series) unless noted; further: potency means the concentration at half of the fitted maximal effect; nearly all actives have a fitted effect of over 50% in size
# Summary of the method: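 Same-well multiplex: following 16 h treatment of HEK 293T cells carrying a UAS-driven beta-lactamase reporter with compound and agonist (3 nM final), and a 2 h FRET substrate step, CellTiter-Glo was added and luminescence read after 30 min.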
# [12] = qHTS assay to identify small molecule antagonists of the retinoid acid receptor (RAR) signaling pathway - cell viability counter screen (AID 1159551); settings: C3RL4 cells viability, ATP luminescence (CellTiter-Glo), 6 h; series mostly up to 92.4 µM; further: potency means the concentration at half of the fitted maximal effect; nearly all actives have a fitted effect of over 35% in size
# Summary of the method: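 C3RL4 RARE-luciferase cells, 1,000/well, incubated overnight, then dosed with compound plus 1 uM retinol (final). After 6 hr at 37 C, viability read by CellTiter-Glo ATP luminescence following 30 min at room temperature.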
# [13] = target: Bile acid receptor (Homo sapiens) (UniProt Q96RI1); assay: qHTS assay to identify small molecule antagonists of the farnesoid-X-receptor (FXR) signaling pathway (AID 743217; active means well fitted inhibition curve with a large enough effect in the signal ratio in the repeat runs, not every such curve was filed as active; inconclusive means weak or mixed curves, or effect the other way; inactive means no such curve, though single readings can be large or run the other way; the % refers to the signal ratio; further: on the % scale 0 is the no-effect control and ±100 the full control effect); settings: HEK293T FXR-UAS-bla, beta-lactamase ratio, CDCA-stimulated, 16 h; activity change, negative = inhibition: at 62.6 µM (top of the series) unless noted
# Summary of the method: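 FXR-UAS-bla HEK 293T cells (beta-lactamase reporter) given compound plus chenodeoxycholic acid (50 uM final), 16 h at 37C. LiveBLAzer B/G FRET substrate added for 2 h at room temperature; fluorescence read.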
# [14] = target: Bile acid receptor (Homo sapiens) (UniProt Q96RI1); assay: qHTS assay to identify small molecule agonists of the farnesoid-X-receptor (FXR) signaling pathway (AID 743220; active means well fitted activation curve with a large enough effect in the signal ratio in the repeat runs, not every such curve was filed as active; inconclusive means weak or mixed curves, or effect the other way; the % refers to the signal ratio; further: on the % scale 0 is the no-effect control and ±100 the full control effect); settings: HEK293T FXR-UAS-bla, beta-lactamase FRET ratio, 16 h; activation: at 62.6 µM (top of the series) unless noted
# Summary of the method: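 Beta-lactamase reporter under UAS control in GeneBLAzer FXR HEK 293T cells (5000/well) measured with LiveBLAzer FRET substrate after 2 h at room temperature. Compound exposure lasted 16 h at 37C.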
# [15] = qHTS assay to identify small molecule agonists of the RXR signaling pathway - cell viability counter screen (AID 1159529); settings: RXR-alpha-bla HEK293T viability, CellTiter-Glo, 16 h; series mostly up to 76.8 µM; further: nearly all actives have a fitted effect of over 50% in size; further: potency means the concentration at half of the fitted maximal effect
# Summary of the method: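 Counter screen: CellTiter-Glo luminescence. Cells: RXR-alpha-UAS-bla HEK 293T. Medium: 2% charcoal-stripped FBS. Treatment: 16 h, 37 C. Reagent incubation: 30 min, RT.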
structure (smiles),measurement,setting,value
COc1cc(C(=O)N2CCCCCCC2)cc(OC)c1OC,"activity change, negative = inhibition",[1],inconclusive: 7.19%
same,Potency,[2],inactive
same,Potency,[3],inactive
same,Potency,[4],inactive
CN(C)c1ccc(C(=N)c2ccc(N(C)C)cc2)cc1,Potency,[5],"inconclusive: 60.9 µM [rising, partial curve, poor fit]"
same,Potency,[6],"inconclusive: 24.2 µM [cytotoxic, full curve]"
same,Potency,[7],"inconclusive: 13.6 µM [rising, full curve]"
same,"ratio activity, negative = inhibition",[7],inconclusive: -27.5%
same,Potency,[8],inactive
same,Potency,[9],"inconclusive: 24.2 µM [rising, partial curve]"
same,Potency,[10],"inconclusive: 54.3 µM [cytotoxic, single point] and inconclusive: 47.1 µM [cytotoxic, single point]"
same,Potency,[11],"inconclusive: 48.4 µM [cytotoxic, single point]"
same,Potency,[2],"inconclusive: 24 µM [cytotoxic, partial curve] and inconclusive: 13.2 µM [cytotoxic, partial curve, poor fit]"
same,Potency,[4],"inconclusive: 8.38 µM [inhibitor, full curve]"
same,activation,[4],inconclusive: -30.3%
same,Potency,[12],"inconclusive: 60.4 µM [cytotoxic, partial curve] and inconclusive: 46.7 µM [cytotoxic]"
Cc1ccc([N+](=O)[O-])cc1N,"activity change, negative = inhibition",[13],inconclusive: 9.67%
same,Potency,[14],inactive
same,Potency,[2],inactive
same,Potency,[4],active: 21.8 µM and inactive
CCCCCCCCCCCCCCC[C@H](O)[C@@H](N)CO,Potency,[5],inactive
same,Potency,[6],"inconclusive: 1.19 µM [cytotoxic, single point]"
same,Potency,[2],inconclusive: 33.5 µM [cytotoxic]
same,Potency,[3],inactive
OC12N=C(c3ccccc3)SC1Cc1cc(Cl)ccc12 (stereo not drawn),Potency,[7],inactive
same,Potency,[2],"inconclusive: 68.6 µM [cytotoxic, partial curve, poor fit]"
same,Potency,[3],inconclusive: 19.5 µM [partial curve]
same,Potency,[4],"inconclusive: 3.89 µM [rising, full curve]"
CCCCCCC,activation,[9],inconclusive: 11% [at 81.1 µM]
same,"activity change, negative = inhibition",[1],inconclusive: 6.07% [at 78.8 µM]
same,Potency,[2],inactive
same,Potency,[3],inactive
same,Potency,[15],inactive
CC1=C(/C=C/C(C)=C\C=C\C(C)=C\C(=O)O)C(C)(C)CCC1,Potency,[5],"inconclusive: 9.77 µM [rising, full curve]"
same,Potency,[11],"inconclusive: 12.3 µM [cytotoxic, single point]"
same,Potency,[2],"inconclusive: 61.1 µM [cytotoxic, single point]"
same,Potency,[3],inactive
same,Potency,[15],"inconclusive: 24.5 µM [cytotoxic, partial curve]"

# 2 entries picked at random from the list so far, as already listed:
structure (smiles),measurement,setting,value
Cc1ccc([N+](=O)[O-])cc1N,Potency,[14],inactive
CCCCCCCCCCCCCCC[C@H](O)[C@@H](N)CO,Potency,[6],"inconclusive: 1.19 µM [cytotoxic, single point]"
